## Primary screen of a compound library

Chains of the proteins cited; added tags and fusions are not shown. Residues count along the entry.
UniProt Q8IDJ8, 1-583: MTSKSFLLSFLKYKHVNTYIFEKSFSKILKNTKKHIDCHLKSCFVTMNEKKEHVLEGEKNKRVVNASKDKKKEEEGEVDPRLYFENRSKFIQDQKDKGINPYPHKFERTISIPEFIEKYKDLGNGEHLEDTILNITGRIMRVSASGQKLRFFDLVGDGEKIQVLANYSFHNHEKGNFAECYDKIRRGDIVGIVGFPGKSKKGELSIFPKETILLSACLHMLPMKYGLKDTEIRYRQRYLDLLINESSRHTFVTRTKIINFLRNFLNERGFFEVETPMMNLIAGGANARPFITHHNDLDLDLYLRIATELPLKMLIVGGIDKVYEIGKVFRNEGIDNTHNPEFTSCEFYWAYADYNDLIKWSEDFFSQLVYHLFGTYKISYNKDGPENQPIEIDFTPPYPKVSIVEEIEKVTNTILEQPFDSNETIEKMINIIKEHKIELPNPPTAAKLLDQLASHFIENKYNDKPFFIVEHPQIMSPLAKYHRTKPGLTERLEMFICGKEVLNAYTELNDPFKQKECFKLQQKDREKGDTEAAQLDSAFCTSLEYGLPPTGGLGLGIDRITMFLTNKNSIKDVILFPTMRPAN

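Lysine-tRNA ligase, Plasmodium falciparum 3D7 (UniProt Q8IDJ8). Enzyme assay of the cytosolic lysyl-tRNA synthetase in 384-well plates, read by luminescence. Concentration: 30 µM. Direction is inferred from only a few compounds that gave an IC50; most scored high, so higher reads as stronger inhibition. Size under these conditions: about 69,000 compounds, about 49 of them at 50% or above in at least one test.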

Results are given as percent effect.
How 0% and 100% were set is not recorded. Most values in the screen are low, and negative values occur.
This is an unselected part of the compounds tested.

Compound | percent effect
O=C(O)c1c(-c2cncnc2)ncc2c1CCN(Cc1cccnc1)C2 | 2.574
Cn1cc(CN2CCCC(c3nc(O)cc(-c4cccs4)n3)C2)cn1 (stereo not drawn) | -0.7323
OCCn1nccc1C1CCN(CCOc2ccc(Cl)cc2)CC1 | -1.416
CCCc1cncnc1N1CCC(NCc2ccc(O)cc2)CC1 | 2.306
Cc1c(F)cccc1S(=O)(=O)NCC(C)(C)CC(C)O (stereo not drawn) | 3.815
CCCN1CCC(N(C)CCC(=O)Nc2ccccc2SC)CC1 | 6.966
O=C(C[S+]([O-])C1CCCC1)NCCOc1cccc(Cl)c1 (stereo not drawn) | 3.255
COC(=O)c1cc(CN2CCN(c3ncccc3C)CC2)ccc1O | 5.607
O=C(CN(C1=NCCCCC1)c1ccc(Cl)cc1)c1ccccc1 | 1.131
CC1CN(c2ncccc2C(=O)Nc2cccc3c2CCCC3)CCN1 (stereo not drawn) | 4.566
Cc1ccc(-c2ncc(C(=O)NCCNc3ncccn3)s2)c(C)c1 | 7.658
O=C(Cc1ccc2c(c1)OCC2)Nc1nn[nH]n1 | 5.338
CCN(Cc1ccncc1)c1cc(C2CCN2C(C)=O)nc(C)n1 (stereo not drawn) | 0.4413
CC1COCCN1Cc1nc(Cc2ccccc2)no1 (stereo not drawn) | -1.636
CC1CCN(c2ccc(C(=O)N3CCCC3c3ccc[nH]3)cn2)CC1 (stereo not drawn) | 0.1789
CC(O)c1cn(C2CCN(C(=O)C3(C)CCN(C)CC3)CC2)nn1 (stereo not drawn) | 1.236
c1cn(-c2cnc(C3CCNCC3)cn2)cn1 | 2.143
Cc1nn(C)c(C)c1C1COCCN1c1ncncc1Br (stereo not drawn) | 7.022
CCc1ccc(C(=O)N(c2cccnc2)C(C)C)cc1S(C)(=O)=O | 1.937
CNc1ccc(CC2CCCN(Cc3c[nH]cn3)C2)nn1 (stereo not drawn) | 0.494
Cc1ccc(C(=O)N2C[C@H]3CN(Cc4csc(C)n4)C[C@H]3C2)cn1 | 0.5392
Cn1ncc2c1NC(=O)CSC2c1ccc2c(c1)OCO2 (stereo not drawn) | 4.839
CN(Cc1ccccn1)C(=O)c1ccc2c(c1O)OC(C)(C)C2 | 0.07799
CC(C)c1noc(-c2ccc(NCc3noc(C(C)C)n3)nc2)n1 | 2.114
CCC(=O)Nc1ncn(Cc2cccnc2)n1 | -0.4038
CCOc1ccccc1CC(=O)N1C[C@@H](C(=O)O)[C@H](C2CC2)C1 | 2.658
COc1ccc(OC)c(C(C)Nc2nc3c(C)nn(C)c3c(=O)n2C)c1 (stereo not drawn) | -8.492
O=C(NCCCn1nc2ccccn2c1=O)NCc1ccccc1 | 0.8963
CN(C(=O)c1ccncc1)c1nnc(C2CCOC2)s1 (stereo not drawn) | 0.6076
CN(C)C(=O)c1noc2c1CN(C(=O)CCC1CCCCN1C)CC2 (stereo not drawn) | 4.538
Cc1ccc(OCC(=O)Nc2ncccc2OC(F)F)cc1 | 3.965
CCNC(=O)c1ccc2ccc(N(CC)CC)n2c1 | -3.214
c1ccc(Cn2cc3c(n2)C(COCC2CC2)OCC3)nc1 (stereo not drawn) | -1.022
Cc1nc(CCCNC(=O)c2cc(F)ccc2O)n[nH]1 | 1.681
NC(=O)c1cc(C2CCCN(CCc3ccc4c(c3)CCO4)C2)n[nH]1 (stereo not drawn) | -1.875
CCN(Cc1ccc2c(c1)OCO2)Cc1nc(C)no1 | 4.889
O=C(NCCN1CCOCC1)c1cc(-c2ccc3c(c2)CCO3)n[nH]1 | -1.224

From ChEMBL document CHEMBL3988442, “University of Dundee, Small-Polar-MMV Screening Library” (2021).